Reference: PMC5924754
Results are given in words; binding and its absence hold for the method and conditions named. Binding seen in cells or lysates may run through a third protein. Some binding calls cover weakened binding; strength is not graded here.

Sequences of proteins named here, by UniProt entry; tags and fusion partners are left off. Residues count along the entry.
UniProt P46379: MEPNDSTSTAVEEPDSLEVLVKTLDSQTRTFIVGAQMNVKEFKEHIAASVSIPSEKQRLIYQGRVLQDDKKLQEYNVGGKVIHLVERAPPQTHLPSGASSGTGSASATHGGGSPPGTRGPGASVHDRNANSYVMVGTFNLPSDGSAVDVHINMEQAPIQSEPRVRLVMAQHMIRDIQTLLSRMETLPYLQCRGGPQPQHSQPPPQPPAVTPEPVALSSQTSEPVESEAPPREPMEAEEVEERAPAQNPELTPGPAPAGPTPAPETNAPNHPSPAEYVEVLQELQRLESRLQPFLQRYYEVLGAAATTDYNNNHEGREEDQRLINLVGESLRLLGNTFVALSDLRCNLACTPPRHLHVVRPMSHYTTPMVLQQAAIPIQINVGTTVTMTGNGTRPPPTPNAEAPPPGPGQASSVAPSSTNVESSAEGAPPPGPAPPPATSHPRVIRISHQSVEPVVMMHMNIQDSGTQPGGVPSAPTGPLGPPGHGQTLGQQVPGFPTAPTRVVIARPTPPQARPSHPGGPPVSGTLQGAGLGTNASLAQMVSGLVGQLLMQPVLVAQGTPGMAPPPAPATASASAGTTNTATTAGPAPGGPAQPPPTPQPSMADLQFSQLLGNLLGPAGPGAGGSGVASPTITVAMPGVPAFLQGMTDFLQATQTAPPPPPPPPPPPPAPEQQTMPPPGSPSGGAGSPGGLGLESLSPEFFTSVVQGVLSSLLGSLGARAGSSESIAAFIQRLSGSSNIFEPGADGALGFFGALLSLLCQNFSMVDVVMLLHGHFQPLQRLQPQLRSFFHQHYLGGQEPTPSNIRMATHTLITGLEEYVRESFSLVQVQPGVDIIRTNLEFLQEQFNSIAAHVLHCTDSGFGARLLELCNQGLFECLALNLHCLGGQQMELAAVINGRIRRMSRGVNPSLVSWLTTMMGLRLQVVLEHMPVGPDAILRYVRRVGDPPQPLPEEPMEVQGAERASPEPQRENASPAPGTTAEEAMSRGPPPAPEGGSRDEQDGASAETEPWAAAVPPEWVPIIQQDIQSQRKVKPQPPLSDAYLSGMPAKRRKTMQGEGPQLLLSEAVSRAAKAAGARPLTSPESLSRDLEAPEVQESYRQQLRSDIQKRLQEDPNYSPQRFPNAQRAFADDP
UniProt Q8TDQ0, residues 22-301: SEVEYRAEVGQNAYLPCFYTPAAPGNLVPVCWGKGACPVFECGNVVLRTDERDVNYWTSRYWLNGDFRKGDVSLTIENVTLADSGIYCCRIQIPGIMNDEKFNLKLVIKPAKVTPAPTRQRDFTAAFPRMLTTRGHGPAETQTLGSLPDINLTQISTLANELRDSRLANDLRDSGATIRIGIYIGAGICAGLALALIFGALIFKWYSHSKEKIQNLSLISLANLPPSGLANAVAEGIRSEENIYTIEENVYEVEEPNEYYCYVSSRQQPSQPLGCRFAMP
UniProt P06239: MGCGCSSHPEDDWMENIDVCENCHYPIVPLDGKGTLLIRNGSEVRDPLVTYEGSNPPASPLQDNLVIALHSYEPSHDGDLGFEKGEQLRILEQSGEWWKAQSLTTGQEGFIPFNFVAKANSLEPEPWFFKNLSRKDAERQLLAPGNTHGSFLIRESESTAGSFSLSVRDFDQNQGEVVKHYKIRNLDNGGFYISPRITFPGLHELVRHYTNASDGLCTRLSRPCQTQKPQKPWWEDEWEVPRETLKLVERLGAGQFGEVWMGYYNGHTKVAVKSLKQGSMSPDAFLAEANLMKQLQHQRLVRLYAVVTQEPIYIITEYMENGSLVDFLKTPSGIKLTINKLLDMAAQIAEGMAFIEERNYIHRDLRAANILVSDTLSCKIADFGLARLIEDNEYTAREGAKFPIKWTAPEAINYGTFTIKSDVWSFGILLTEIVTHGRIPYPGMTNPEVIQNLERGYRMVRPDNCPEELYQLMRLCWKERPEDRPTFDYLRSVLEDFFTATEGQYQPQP

Legend:
[1] = molecular target: Bat3-Myc (UniProt P46379); assay: co-IP; Bat3-Myc and Tim-3-HA overexpressed in HEK 293 T cells; immunoprecipitation and immunoblot
[2] = molecular target: Bat3 (in Jurkat T cells) (human (endogenous in Jurkat)) (UniProt P46379); assay: co-IP; Jurkat T cells transfected with lentiviral particles (Tim-3-HA; without Lnc-Tim3 wild type), treated with anti-TCR/anti-CD28 beads and PMA-ionomycin; Bat3 precipitated, pLck blotted
[3] = molecular target: Bat3 (in Jurkat T cells) (human (endogenous in Jurkat)) (UniProt P46379); assay: condition: only in Lnc-Tim3 transfected Jurkat T cells; co-IP; Jurkat T cells transfected with lentiviral particles (Tim-3-HA and Lnc-Tim3 wild type), treated with anti-TCR/anti-CD28 beads and PMA-ionomycin; Bat3 precipitated, pLck blotted

Substance | binding [1] | binding [2] | binding [3]
Tim-3-HA (wild type T cell immunoglobulin mucin 3) (from UniProt Q8TDQ0 22-301) (receptor) | binds |  | 
catalytically active form of Lck (pTyr394) (from UniProt P06239 1-509) (enzyme) |  | binds | no binding
